According to article PMC6768663:
Results are given in words; binding and its absence hold for the method and conditions named. In cells and extracts the contact can be indirect. Some binding calls cover weakened binding; strength is not graded here.

By UniProt entry, the sequences of proteins in these tests, tags left out.
UniProt Q9EQT3: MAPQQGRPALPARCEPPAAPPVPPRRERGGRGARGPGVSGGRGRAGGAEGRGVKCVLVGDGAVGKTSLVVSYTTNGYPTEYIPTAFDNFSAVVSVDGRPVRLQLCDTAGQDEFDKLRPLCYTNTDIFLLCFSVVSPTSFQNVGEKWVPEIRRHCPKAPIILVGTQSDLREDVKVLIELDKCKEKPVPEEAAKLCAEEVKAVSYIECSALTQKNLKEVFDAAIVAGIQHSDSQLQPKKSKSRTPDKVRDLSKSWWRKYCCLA

Biological target: MYC-RHOU (mouse) (UniProt Q9EQT3)
Assay: co-IP; primary mouse keratinocytes transfected with empty vector or Myc-Rhou; Pierce IP Lysis Buffer; 500 μg of protein with anti-MYC antibody overnight, Protein A/G agarose; blot with ARHGEF7 antibody

- binding: binds
B1: ARHGEF7 (β-PIX) (protein, UniProt Q9ES28 1-862)
chain: MNSAEQTVTWLITLGVLESPKKTISDPEVFLQASLKDGVVLCRLLERLLPGTIEKVYPEPRNESECLSNIREFLRACGASLRLETFDANDLYQGQNFNKVLSSLVTLNKVTADIGLGSDSVCARPSSHRIKSFDSLGSQSSHSRTSKLLQSQYRSLDMTDNTNSQLVVRAKFNFQQTNEDELSFSKGDVIHVTRVEEGGWWEGTHNGRTGWFPSNYVREIKPSEKPVSPKSGTLKSPPKGFDTTAINKSYYNVVLQNILETEHEYSKELQSVLSTYLRPLQTSDKLSSANTSYLMGNLEEISSFQQVLVQSLEECTKSPEAQQRVGGCFLSLMPQMRTLYLAYCANHPSAVSVLTEHSEDLGEFMETKGASSPGILVLTTGLSKPFMRLDKYPTLLKELERHMEDYHPDRQDIQKSMTAFKNLSAQCQEVRKRKELELQILTEPIRSWEGDDIKTLGSVTYMSQVTIQCAGSEEKNERYLLLFPNLLLMLSASPRMSGFIYQGKLPTTGMTITKLEDSENHRNAFEISGSMIERILVSCTSQQDLHEWVEHLQKQTKVTSVSNPTIKPHSVPSHTLPSHPLTPSSKHADSKPVALTPAYHTLPHPSHHGTPHTTISWGPLEPPKTPKPWSLSCLRPAPPLRPSAALCYKEDLSKSPKTMKKLLPKRKPERKPSDEEFAVRKSTAALEEDAQILKVIEAYCTSAKTRQTLNSTWQGTDLMHNHVLADDDQSSLDSLGRRSSLSRLEPSDLSEDSEYDSIWTAHSYRMGSASRSRKESAPQVLLPEEEKIIVEETKSNGQTVIEEKSLVDTVYALKDEVQELRQDNKKMKKSLEEEQRARKDLEKLVRKVLKNMNDPAWDETNL
